Reference: patent US20230295329A1 (published 2023)

Biological target: Cyno PD-1 antigen (purchased from Sino Biological) (cynomolgus monkey)
Assay: SPR (Biacore T200)

binding: binds
B1: Hu23-11.IgG4AA (antibody, V domains shown)
VH: EVQLVQSGAEVKKPGSSVKVSCKASGGTFSDYEMHWVRQAPGQGLEWMGLIDPETGGTVYNQKFKDRVTITADKSTSTAYMELSSLRSEDTAVYYCARERFSYYGSTSDWYFDVWGQGTTVTVSS
VL: DIVMTQTPLSLPVTPGEPASISCRSSQSLVHSTGNTYLEWYLQKPGQSPQLLIYKVSNRFSGVPDRFSGSGSGTDFTLKISRVEAEDVGVYYCFQGSHVPYTFGGGTKVEIKR
notes: Full-length IgG4-AA (S228P, F234A, L235A) antibody with kappa light chain; LCDR1 mutant N28T (Kabat)

binding: binds
B2: Hu32a-85.IgG4AA (antibody, V domains shown)
VH: EVQLVQSGAEVKKPGSSVKVSCKASDFTFTDYEIHWVKQAPGHGLEWIGLFDPETGGIVYNQKFKGKATLTADKSTSTAYMEFSSLRSEDTAVYYCTREGYNRDWYFDVWGQGTTVTVSS
VL: B1 VL
notes: Full-length IgG4-AA (S228P, F234A, L235A) antibody with kappa light chain

No constants are given. Whether binding was seen depends on the method and setting. Binding calls can cover weak binding; strength is not graded here. Each block holds one binder with its values, some of them ahead of it.
